Measured values from US5164314A, “Microbiologically-prepared diacetyl reductase” (priority 1988, dated 1992).
At least one structure is not confirmed: it was looked up by name or label, or the drawing left a doubt.

Columns and labels:
diacetyl reductase E1 = assay: Substrate spectrum and KM determination, enzyme E1; type: biochemical, Lactobacillus kefir; set-up: Rel. Vmax E1: unit not given here; settings: most highly-purified E1
diacetyl reductase E2 = assay: Substrate spectrum and KM determination, enzyme E2; type: biochemical, Lactobacillus kefir; settings: most highly-purified E2
Description: To determine KM, the activity of both Lactobacillus enzymes was measured as a function of the substrate concentration.
Various substrates were assayed with the most highly-purified preparations of the Lc. enzymes E1 and E2. The maximum conversion rate and KM were measured for each substrate by altering the concentration.

Structure (SMILES)	Km (diacetyl reductase E1) [µM]	Rel. Vmax E1 (diacetyl reductase E1)	Km (diacetyl reductase E2) [µM]	Rel. Vmax E2 (diacetyl reductase E2)
CC(=O)C(=O)O [Pyruvate]	57	104	13	14
O=C(O)C(=O)Cc1ccccc1 [β-Phenylpyruvate]	480	17	130	22
